Target: T1, hNav1.4 (Homo sapiens, UniProt P35499, P1158S)
T1 construct: gene SCN4A

By UniProt entry, the sequences of proteins in these tests, tags left out.
UniProt P35499, whole entry P1158S: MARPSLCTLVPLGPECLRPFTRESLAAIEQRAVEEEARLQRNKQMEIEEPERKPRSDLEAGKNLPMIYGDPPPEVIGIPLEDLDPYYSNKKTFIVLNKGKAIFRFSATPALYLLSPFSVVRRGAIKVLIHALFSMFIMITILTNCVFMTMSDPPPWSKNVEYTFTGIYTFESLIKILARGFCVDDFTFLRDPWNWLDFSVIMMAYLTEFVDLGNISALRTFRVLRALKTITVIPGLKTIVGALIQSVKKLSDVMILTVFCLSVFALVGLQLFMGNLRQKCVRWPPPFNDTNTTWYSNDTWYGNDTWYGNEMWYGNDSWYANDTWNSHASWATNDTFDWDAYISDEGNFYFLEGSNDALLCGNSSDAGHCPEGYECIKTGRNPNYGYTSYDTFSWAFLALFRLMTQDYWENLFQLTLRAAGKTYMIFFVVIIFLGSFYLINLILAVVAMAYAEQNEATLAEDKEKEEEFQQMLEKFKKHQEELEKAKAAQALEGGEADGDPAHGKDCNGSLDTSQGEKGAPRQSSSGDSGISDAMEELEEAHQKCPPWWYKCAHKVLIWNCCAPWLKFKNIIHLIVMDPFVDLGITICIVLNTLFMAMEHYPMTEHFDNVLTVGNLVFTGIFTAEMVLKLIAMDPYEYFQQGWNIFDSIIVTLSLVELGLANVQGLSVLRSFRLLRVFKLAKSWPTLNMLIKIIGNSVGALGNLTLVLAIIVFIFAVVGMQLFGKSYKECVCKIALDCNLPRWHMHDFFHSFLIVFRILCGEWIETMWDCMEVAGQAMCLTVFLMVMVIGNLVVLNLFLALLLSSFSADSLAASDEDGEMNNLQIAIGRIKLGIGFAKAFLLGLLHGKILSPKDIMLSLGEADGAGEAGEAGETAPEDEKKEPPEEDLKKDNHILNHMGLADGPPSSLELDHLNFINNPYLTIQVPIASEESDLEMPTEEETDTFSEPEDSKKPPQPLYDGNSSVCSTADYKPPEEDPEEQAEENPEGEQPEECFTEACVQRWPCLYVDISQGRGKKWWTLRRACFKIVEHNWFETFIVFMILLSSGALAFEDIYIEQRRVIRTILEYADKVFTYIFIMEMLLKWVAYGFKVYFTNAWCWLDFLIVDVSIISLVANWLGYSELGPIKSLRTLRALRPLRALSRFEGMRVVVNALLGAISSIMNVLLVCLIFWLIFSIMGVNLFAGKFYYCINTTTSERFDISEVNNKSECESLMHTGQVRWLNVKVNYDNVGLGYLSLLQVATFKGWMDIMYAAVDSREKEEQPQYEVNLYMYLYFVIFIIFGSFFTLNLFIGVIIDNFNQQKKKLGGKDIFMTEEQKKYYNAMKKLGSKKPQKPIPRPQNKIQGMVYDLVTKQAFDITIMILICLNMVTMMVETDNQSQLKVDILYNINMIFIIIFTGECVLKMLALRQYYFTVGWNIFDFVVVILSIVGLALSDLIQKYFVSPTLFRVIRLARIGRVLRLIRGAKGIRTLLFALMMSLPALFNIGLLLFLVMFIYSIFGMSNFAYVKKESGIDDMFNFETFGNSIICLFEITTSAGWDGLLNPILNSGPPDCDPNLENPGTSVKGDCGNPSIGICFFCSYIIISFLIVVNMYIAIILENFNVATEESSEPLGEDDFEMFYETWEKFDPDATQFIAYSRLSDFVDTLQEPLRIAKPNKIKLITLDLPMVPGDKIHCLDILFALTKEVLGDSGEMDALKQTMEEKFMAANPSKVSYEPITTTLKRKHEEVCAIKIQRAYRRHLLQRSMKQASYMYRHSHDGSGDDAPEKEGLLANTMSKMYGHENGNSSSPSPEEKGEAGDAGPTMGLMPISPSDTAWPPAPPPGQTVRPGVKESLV

## Nc1nc2ccc(OC(F)(F)F)cc2s1 [riluzole, 2-amino-6-(trifluoromethoxy)benzothiazole]
  whole-cell patch clamp (SSI shift and late sodium current) at 1 and 5 μM: stabilised the inactivation in this variant, significantly shifting the SSI curve to more negative potentials, compared to vehicle

From publication PMC11438954 (Nature Communications, 2024)
